Data: article PMC7819943, “Rice protein-binding microarrays: a tool to detect cis-acting elements near promoter regions in rice”
The other results are listed elsewhere or left out.

By UniProt entry, the sequences of proteins in these tests, tags left out.
UniProt Q0JBA9, entry or part of it: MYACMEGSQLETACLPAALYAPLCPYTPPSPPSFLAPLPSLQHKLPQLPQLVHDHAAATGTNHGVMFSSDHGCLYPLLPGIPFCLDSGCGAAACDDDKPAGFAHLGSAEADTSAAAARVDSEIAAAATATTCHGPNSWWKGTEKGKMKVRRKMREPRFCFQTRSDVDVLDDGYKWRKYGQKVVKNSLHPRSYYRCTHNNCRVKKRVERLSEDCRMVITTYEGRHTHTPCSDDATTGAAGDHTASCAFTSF

Molecular target: OsWRKY34 (Oryza sativa, UniProt Q0JBA9 1-250)
Test: protein-binding microarray (RPBM); PBS, 2% BSA, 51.3 ng/ul salmon testes DNA, 50 uM zinc acetate, 200 nM TF, 25 C, 1 h; high values mean tight binding
Details: protein: recombinant; tags: N-terminal polyhistidine and DsRed monomer fusion (pET32a); label: CyDye5-dUTP incorporated in the synthesized complementary strand; 3' TTTTT single-stranded linker to array surface; dsDNA, one strand shown
Outline: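 The binding signal is fluorescence intensity per array feature (arbitrary units). Readings came from an Axon 4000B scanner after a washed, 2% BSA-blocked, double-stranded custom Agilent array had been incubated for 1 h at 25 °C with 200 nM protein and 50 µM zinc acetate. The protein was a Ni–NTA-purified transcription factor fused N-terminally to polyhistidine and DsRed, expressed in E. coli BL21-CodonPlus.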

Sequence | binding signal
TTGCGTTTTGGGTGGTGAATTTTGATTTTGATTCTTTTTTCGGAGTCACCTAGTGCAG | 12700 fluorescence intensity (a.u.)
AATGTATTCTCCGTTTAGGATTATTTTTATGTCCTCTTTGCGGAGTCACCTAGTGCAG | 9620 fluorescence intensity (a.u.)
GCCTATGATCAGTATACATGACCATCCTTCATGGCCATCTCGGAGTCACCTAGTGCAG | 8860 fluorescence intensity (a.u.)
ATCTCTCCGCCGCTCACTACCCTCTTGTTGACCACCGCTCCGGAGTCACCTAGTGCAG | 14000 fluorescence intensity (a.u.)
ACATGCCCTAATTTTATGAGTTAGAGCTCTACGTGCTCTTCGGAGTCACCTAGTGCAG | 9170 fluorescence intensity (a.u.)
TCATTTTTATATTTTTCCTAAGTGTTATAATACTCTGTTTCGGAGTCACCTAGTGCAG | 8350 fluorescence intensity (a.u.)
GGATAGTTCGTGCATGTAGTGTGGGTGTTTAGGGCATATACGGAGTCACCTAGTGCAG | 9130 fluorescence intensity (a.u.)
ATCTCGCCCACGCCAGCTAAGCCTTTGTACGCACAACATGCGGAGTCACCTAGTGCAG | 11700 fluorescence intensity (a.u.)
CCTGAGTTAGTAGTCGACTACTGTGTTTTTTTTTTCATGTCGGAGTCACCTAGTGCAG | 9880 fluorescence intensity (a.u.)
CGGGAGCCAGGTGGATTGGGCTGAGGTGGTGGTGGTGGGCCGGAGTCACCTAGTGCAG | 11900 fluorescence intensity (a.u.)
CCTCCTTGCCCCGATTCGCCGCCGGTCTCCTCCCCTCCGCCGGAGTCACCTAGTGCAG | 9180 fluorescence intensity (a.u.)
TGCAAGCTCCGCCGTTTGTGTGTAATGGGGTTTCCCAAATCGGAGTCACCTAGTGCAG | 8230 fluorescence intensity (a.u.)
AGTTTTTGCTTGTAACGTTTGACCACTCGTCTTATTTAATCGGAGTCACCTAGTGCAG | 11700 fluorescence intensity (a.u.)
TAGCCCTTGTCGTTTTCATGTAGAACTCTATTCATCCTTCCGGAGTCACCTAGTGCAG | 11400 fluorescence intensity (a.u.)
GGACACCTTACATCTATAGTTTCGTGATAGTTTCGTGATACGGAGTCACCTAGTGCAG | 9330 fluorescence intensity (a.u.)
ATCACATGTCATACACACACAACTTTTCAGTCACATCATCCGGAGTCACCTAGTGCAG | 8940 fluorescence intensity (a.u.)
CCGTGTAATGTTGATTGCGTCTTTCTAGGTTTAGTTTGCACGGAGTCACCTAGTGCAG | 8100 fluorescence intensity (a.u.)
TTGATCTCATGTCGCTGCTAGGTAATTCGGTTCTGTTTTACGGAGTCACCTAGTGCAG | 11800 fluorescence intensity (a.u.)
CATCATTTTTCGCTTTCTATTTTGATTCCCCGTTGCCAAGCGGAGTCACCTAGTGCAG | 8700 fluorescence intensity (a.u.)
CATAGTGCACGATGTTCCCTACTTATATCCATTTTTATATCGGAGTCACCTAGTGCAG | 8340 fluorescence intensity (a.u.)
TCAGTGTGCGGGCAAACCTTCCTCATCCTTGCCCTTATCTCGGAGTCACCTAGTGCAG | 8190 fluorescence intensity (a.u.)

2 entries from above, with tabs.
Sequence	binding signal
CGGGAGCCAGGTGGATTGGGCTGAGGTGGTGGTGGTGGGCCGGAGTCACCTAGTGCAG	11900 fluorescence intensity (a.u.)
CATCATTTTTCGCTTTCTATTTTGATTCCCCGTTGCCAAGCGGAGTCACCTAGTGCAG	8700 fluorescence intensity (a.u.)

Continuation:

Sequence | binding signal
GGCGGAATCCACCGTCTCACTGCGCGCCCTGCCCCGCCTGCGGAGTCACCTAGTGCAG | 10700 fluorescence intensity (a.u.)
CCCTCTCCCTCGTTTTCTGCACGCACGCTTTTCAAACTGCCGGAGTCACCTAGTGCAG | 8280 fluorescence intensity (a.u.)
GATTTCGACCTCTGCCTATTAGGGTGCTCGGTCTCTGAGCCGGAGTCACCTAGTGCAG | 8090 fluorescence intensity (a.u.)
TTGCTGCTTATCTTGCATAGATACGGCCGGCTTTTCCCTTCGGAGTCACCTAGTGCAG | 8390 fluorescence intensity (a.u.)
CCGCGTTTGCAGATCGATTTCGTTTTACTCCTTTCCCACACGGAGTCACCTAGTGCAG | 10300 fluorescence intensity (a.u.)
ATGTTGATTATCTCTCATGCATTATTATTATTTAATTAATCGGAGTCACCTAGTGCAG | 9070 fluorescence intensity (a.u.)
CTAATTAAGCTACCCAACCATCTGACATGGTTTACTACTTCGGAGTCACCTAGTGCAG | 8420 fluorescence intensity (a.u.)
ACTTATTTTAGTTTGACTTGATTTTTCATCAAATGTTTTTCGGAGTCACCTAGTGCAG | 10400 fluorescence intensity (a.u.)
GCTGTCCACGACGTCGTCTTCGTCGTCCTCCTCTTCGCCGCGGAGTCACCTAGTGCAG | 8180 fluorescence intensity (a.u.)
TGGTCAAAAACGTCTCTGCCCATGACCACTCGCCCAAAACCGGAGTCACCTAGTGCAG | 8130 fluorescence intensity (a.u.)
CCACGATATTTTAAGTTATACTATCTCCGTCTCAAAATATCGGAGTCACCTAGTGCAG | 9130 fluorescence intensity (a.u.)
TGGTACTGCGTGCGGTGGGGTAGGAGTAGGAGGTTTCTTTCGGAGTCACCTAGTGCAG | 16600 fluorescence intensity (a.u.)
AATATGTGCCGGTAGCGCGTACGCGTCCACTAGCAACCCCCGGAGTCACCTAGTGCAG | 8180 fluorescence intensity (a.u.)
TTCCCGTGCTAACGTTTGACTGTCTGTCTTATATGAAATTCGGAGTCACCTAGTGCAG | 9390 fluorescence intensity (a.u.)
CCACCTGAGAAACATACTACTCCCTGCCATACACCACCCTCGGAGTCACCTAGTGCAG | 8050 fluorescence intensity (a.u.)
AAATGTGATGCTGCAACTTGTCCGTCCCATGTATGAATTCCGGAGTCACCTAGTGCAG | 8420 fluorescence intensity (a.u.)
CGTATCATACTGTACATTGTATCAACTGATCCTGACTCCGCGGAGTCACCTAGTGCAG | 9030 fluorescence intensity (a.u.)
ATATCTTGCTACTTTGTCTTCTTCCAACCGATCCATACGCCGGAGTCACCTAGTGCAG | 8790 fluorescence intensity (a.u.)
AACTTGGTGGGTTTGGTTTTGCTCTTTCTGTTGACCAAGCCGGAGTCACCTAGTGCAG | 12000 fluorescence intensity (a.u.)
CTTTCGCGTGGGCATCTCTTTCTTTCGCGTTCGCTTCCTTCGGAGTCACCTAGTGCAG | 11000 fluorescence intensity (a.u.)
ATCCACTCCAGTCCCGTCCCGTTTCCTTGCTGCCCGGCCGCGGAGTCACCTAGTGCAG | 9660 fluorescence intensity (a.u.)
